Laboratory results: publication doi:10.1101/2023.03.23.533910 (bioRxiv, 2023)
No constants are given. Whether binding was seen depends on the method and setting. In cells and extracts the contact can be indirect. A result given as binding can be weak or reduced; the word gives no strength. Where a sequence is shown, tags or fusion partners need not be part of it.

T1: SNC1-GFP (Arabidopsis thaliana) (UniProt O23530)
T1 sequence: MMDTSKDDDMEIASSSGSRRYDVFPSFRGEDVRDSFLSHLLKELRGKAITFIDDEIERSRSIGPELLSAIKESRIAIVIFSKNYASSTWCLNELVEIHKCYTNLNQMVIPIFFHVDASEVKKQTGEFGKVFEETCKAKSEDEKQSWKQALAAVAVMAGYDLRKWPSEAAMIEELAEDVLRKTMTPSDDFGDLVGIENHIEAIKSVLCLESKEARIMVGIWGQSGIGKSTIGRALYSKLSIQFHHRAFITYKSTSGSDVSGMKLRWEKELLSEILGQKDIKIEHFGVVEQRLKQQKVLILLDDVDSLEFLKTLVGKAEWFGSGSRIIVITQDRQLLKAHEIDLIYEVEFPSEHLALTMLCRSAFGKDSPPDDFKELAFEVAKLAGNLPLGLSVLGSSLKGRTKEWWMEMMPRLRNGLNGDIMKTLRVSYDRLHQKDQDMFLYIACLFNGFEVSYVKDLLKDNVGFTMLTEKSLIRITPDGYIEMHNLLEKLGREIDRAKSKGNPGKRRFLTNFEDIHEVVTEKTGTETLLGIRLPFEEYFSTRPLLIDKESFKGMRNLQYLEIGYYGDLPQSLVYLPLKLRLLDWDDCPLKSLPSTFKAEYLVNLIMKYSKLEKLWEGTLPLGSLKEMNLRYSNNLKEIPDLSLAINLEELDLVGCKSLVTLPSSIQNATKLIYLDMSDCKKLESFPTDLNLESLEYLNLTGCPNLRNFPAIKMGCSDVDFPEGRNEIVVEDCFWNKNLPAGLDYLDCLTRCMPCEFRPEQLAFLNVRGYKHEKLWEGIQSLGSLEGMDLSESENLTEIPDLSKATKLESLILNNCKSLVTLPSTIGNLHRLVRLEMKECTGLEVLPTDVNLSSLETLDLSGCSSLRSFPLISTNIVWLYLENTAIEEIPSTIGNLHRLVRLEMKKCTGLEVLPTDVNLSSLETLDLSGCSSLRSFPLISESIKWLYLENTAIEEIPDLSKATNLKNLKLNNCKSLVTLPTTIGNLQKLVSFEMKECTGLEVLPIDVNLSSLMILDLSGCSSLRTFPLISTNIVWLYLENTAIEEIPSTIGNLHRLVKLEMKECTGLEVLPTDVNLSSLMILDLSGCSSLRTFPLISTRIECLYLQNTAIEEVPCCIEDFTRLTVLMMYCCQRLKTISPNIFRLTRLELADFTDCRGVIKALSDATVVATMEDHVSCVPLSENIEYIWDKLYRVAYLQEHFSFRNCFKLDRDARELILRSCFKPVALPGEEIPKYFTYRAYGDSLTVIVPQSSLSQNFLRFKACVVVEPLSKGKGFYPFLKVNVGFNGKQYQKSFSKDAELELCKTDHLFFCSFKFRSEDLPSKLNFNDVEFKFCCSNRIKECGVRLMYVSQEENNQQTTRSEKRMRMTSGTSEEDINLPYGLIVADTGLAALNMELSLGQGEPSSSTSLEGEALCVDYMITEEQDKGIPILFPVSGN

B1: 3xHA-tagged SNC1 (natural protein, Arabidopsis thaliana, UniProt O23530 1-1437, looked up)
chain: T1 sequence

Experiments:
[1] = target: T1, SNC1-GFP (Arabidopsis thaliana); assay: pull-down
[2] = target: ADR1-L1-GFP (Arabidopsis thaliana); assay: co-IP
[3] = target: ADR1-L2-FLAG (Arabidopsis thaliana); assay: co-IP
[4] = target: ADR1-L1-FLAG (Arabidopsis thaliana); assay: co-IP

Molecule | binding [1] | binding [2] | binding [3] | binding [4]
MBP-tagged CCR domain of ADR1 (Arabidopsis thaliana) (domain or fragment) | binds |  |  | 
MBP-tagged CCR domain of ADR1-L1 (Arabidopsis thaliana) (domain or fragment) | binds |  |  | 
MBP-tagged CCR domain of ADR1-L2 (Arabidopsis thaliana) (domain or fragment) | binds |  |  | 
B1 |  | binds | binds | binds
